{"source": "patent US20090047285A1", "about": "(ONCOMED PHARMACEUTICALS, published 2009)", "binders": {"B1": {"name": "122R5 (Fab, V domains shown)", "VH": "QVQLVESGGGLVQPGGSLRLSCAASGFTFSDNAIHWVRQAPGKGLEWVSAISSYGSGTYYADSVKGRFTISRDNSKNTLYLQMNSLRAEDTAVYYCARPGFQFSFTFMDIWGQGTLVTVSS", "VL": "DIELTQPPSVSVAPGQTARISCSGDALGSKYASWYQQKPGQAPVLVIYDDKNRPSGIPERFSGSNSGNTATLTISGTQAEDEADYYCQSWDGKSKVVFGGGTKLTVLG", "notes": "Human fAb from phage display; also called fAb122R5; lead fAb, 122R5"}}, "biological_target": "Notch3 (E403Q)", "assay": "survey of fAbs after phage display selection", "note": "Results are given in words; binding and its absence hold for the method and conditions named."}
{"binder": "B1", "values": [{"measurement": "binding", "value": "no binding"}]}
